Certain results were filed several times, with different values. This list holds those alone. The source may hold further records. Results that share an entry differ, and nothing given here explains why; they may come from other doses, times, organisms or constructs than stated.
Assay: Predicted clearance and half-life in man by allometric scaling of clearance in dogs
Method: The predicted clearance of LEO 134310 in man is 300 mL/min/kg (15-fold the liver blood flow) based on allometric scaling of clearance in dogs, using 0.75 as scaling factor. The corresponding predicted half-life is < 5 min, which is in line with the measured in vitro half-life of LEO 134310 in human blood (4.4 min) (Table 2).
To evaluate allometric scaling, actual clearance in dog and man were extracted from the literature for 6 ester drugs[27]–[38].

For `C[C@H](NC(=O)[C@H]1CCCO1)[C@H](Oc1ccc(C(=O)O[C@H]2CCCN(C(=O)[C@H]3COC(=O)C3)C2)cc1)c1ccc(C2CC2)cc1` [LEO 134310], the “Predicted clearance in man relative to liver blood flow” value was 15 fold and more than 10 fold.

— article PMC8795149, “Characterization of a novel non-steroidal glucocorticoid receptor agonist optimized for topical treatment” (Scientific Reports, 2022)
